{
  "source": "PubChem BioAssay AID256",
  "about": "(DTP/NCI, 2004)",
  "system": "CD2F1 mice, L1210 leukemia ip, survival T/C",
  "experiment": "NCI In Vivo Anticancer Drug Screen. Data for tumor model L1210 Leukemia (intraperitoneal) in CD2F1 (CDF1) mice",
  "conditions": "higher T/C = longer survival",
  "how_it_was_run": "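Vehicle-treated tumor-bearing mice served as controls (C) for compound-treated mice (T). Reported figure is T divided by C.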",
  "note": "The list is a part of this screen's results and no random one: it is rich in T/C values a quarter to a half above the control, in often repeated tests (any T/C) and in doses without a T/C. Other doses and runs of a compound stand elsewhere. T/C gives the treated animals as a percentage of the vehicle group. Some entries give survivors of the animals treated and no T/C: the source files T/C as zero there, which appears to mark a toxic dose or a test without result, not a measured value. Some survivor counts are full or nearly so, which does not show that the dose was tolerated: survival well below the control is almost never listed, so the zero probably covers shortened survival too. Survivors were counted at the toxicity check, usually on the fifth day, unless a day is given; later deaths do not show. Schedule codes are those of the source, taken here to give the interval after Q, in days (D) or hours (H), and the number of doses after X. Where survival is the endpoint, the PubChem record calls one and a half times the control and up active, and a quarter to a half above the control has no call in these data; cut-offs in other NCI protocols can differ. Some T/C values are followed by the survivors on the day toxicity was checked, most often the fifth; without a count, all were alive then. Some entries hold several experiments; the results are listed from low to high. Brackets with × count equal records among those shown.",
  "data": [
    {"smiles": "O=NN(CCCl)C(=O)NCCCl", "values": [
      {"measurement": "T/C", "setting": "T/C endpoint: mean survival time, dose: 37.5 mg/kg/injection, schedule: Q01DX001 (ip), vehicle: saline + alcohol", "value": "369, 383, 437, 479 % of control"},
      {"measurement": "T/C", "setting": "T/C endpoint: mean survival time, dose: 40.0 mg/kg/injection, schedule: Q01DX001 (ip), vehicle: saline + alcohol, evaluated on day 5", "value": "143 % of control"},
      {"measurement": "T/C", "setting": "T/C endpoint: mean survival time, dose: 40.0 mg/kg/injection, schedule: Q01DX001 (ip), vehicle: saline + alcohol, evaluated on day 6", "value": "203 % of control"},
      {"measurement": "T/C", "setting": "T/C endpoint: mean survival time, dose: 40.0 mg/kg/injection, schedule: Q01DX001 (ip), vehicle: saline + alcohol, evaluated on day 8", "value": "193 % of control"},
      {"measurement": "T/C", "setting": "T/C endpoint: mean survival time, dose: 40.0 mg/kg/injection, schedule: Q01DX001 (ip), vehicle: saline + alcohol, evaluated on day 30", "value": "352 % of control"},
      {"measurement": "T/C", "setting": "T/C endpoint: mean survival time, dose: 40.0 mg/kg/injection, schedule: Q01DX001 (ip), vehicle: saline + alcohol, evaluated on day 45", "value": "400 and 456 % of control"},
      {"measurement": "T/C", "setting": "T/C endpoint: mean survival time, dose: 40.0 mg/kg/injection, schedule: Q01DX001 (ip), vehicle: saline + alcohol, evaluated on day 60", "value": "344 and 857 % of control"},
      {"measurement": "T/C", "setting": "T/C endpoint: mean survival time, dose: 40.0 mg/kg/injection, schedule: Q01DX001 (ip), vehicle: saline, evaluated on day 5", "value": "305, 310, 343 % of control"},
      {"measurement": "T/C", "setting": "T/C endpoint: mean survival time, dose: 40.0 mg/kg/injection, schedule: Q01DX001 (ip), vehicle: saline, evaluated on day 30", "value": "218 [5 of 6 alive], 296, 301 % of control"},
      {"measurement": "T/C", "setting": "T/C endpoint: mean survival time, dose: 40.0 mg/kg/injection, schedule: Q01DX001 (ip), vehicle: saline, evaluated on day 60", "value": "340 % of control"},
      {"measurement": "T/C", "setting": "T/C endpoint: mean survival time, dose: 48.0 mg/kg/injection, schedule: Q01DX001 (ip), vehicle: saline + alcohol, evaluated on day 5", "value": "121, 305, 309, 479 % of control"},
      {"measurement": "T/C", "setting": "T/C endpoint: mean survival time, dose: 48.0 mg/kg/injection, schedule: Q01DX001 (ip), vehicle: saline + alcohol, evaluated on day 6", "value": "206 % of control"},
      {"measurement": "T/C", "setting": "T/C endpoint: mean survival time, dose: 60.0 mg/kg/injection, schedule: Q01DX001 (ip), vehicle: Klucel (hydroxypropylcellulose) (HPC)", "value": "146 % of control"},
      {"measurement": "T/C", "setting": "T/C endpoint: mean survival time, dose: 60.0 mg/kg/injection, schedule: Q01DX001 (ip), vehicle: saline + alcohol, evaluated on day 30", "value": "121 and 240 % of control"},
      {"measurement": "T/C", "setting": "T/C endpoint: mean survival time, dose: 60.0 mg/kg/injection, schedule: Q01DX001 (ip), vehicle: saline + alcohol, evaluated on day 40", "value": "145 and 408 % of control"},
      {"measurement": "T/C", "setting": "T/C endpoint: mean survival time, dose: 64.0 mg/kg/injection, schedule: Q01DX001 (ip), vehicle: saline + alcohol, evaluated on day 5", "value": "236 % of control"},
      {"measurement": "T/C", "setting": "T/C endpoint: mean survival time, dose: 64.0 mg/kg/injection, schedule: Q01DX001 (ip), vehicle: saline + alcohol, evaluated on day 30", "value": "250 and 279 % of control"},
      {"measurement": "T/C", "setting": "T/C endpoint: mean survival time, dose: 64.0 mg/kg/injection, schedule: Q01DX001 (ip), vehicle: saline + alcohol, evaluated on day 45", "value": "222 % of control [5 of 6 alive]"},
      {"measurement": "survivor count", "setting": "T/C endpoint: mean survival time, dose: 120.0 mg/kg/injection, schedule: Q01DX001 (ip), vehicle: saline + alcohol", "value": "2 of 6"},
      {"measurement": "survivor count", "setting": "T/C endpoint: mean survival time, dose: 128.0 mg/kg/injection, schedule: Q01DX001 (ip), vehicle: saline + alcohol", "value": "4 of 6"},
      {"measurement": "T/C", "setting": "T/C endpoint: median survival time, dose: 0.88 mg/kg/injection, schedule: Q01DX009 (ip), vehicle: saline + alcohol", "value": "125 % of control"},
      {"measurement": "T/C", "setting": "T/C endpoint: median survival time, dose: 1.5 mg/kg/injection, schedule: Q01DX009 (ip), vehicle: saline + alcohol", "value": "148 % of control"},
      {"measurement": "T/C", "setting": "T/C endpoint: median survival time, dose: 1.8 mg/kg/injection, schedule: Q01DX009 (ip), vehicle: saline + alcohol", "value": "128 % of control"},
      {"measurement": "T/C", "setting": "T/C endpoint: median survival time, dose: 5.0 mg/kg/injection, schedule: Q01DX001 (ip), vehicle: Klucel (hydroxypropylcellulose) (HPC)", "value": "138 % of control"},
      {"measurement": "T/C", "setting": "T/C endpoint: median survival time, dose: 7.5 mg/kg/injection, schedule: Q01DX005 (ip), vehicle: saline + alcohol, evaluated on day 30", "value": "231, 237, 246, 370 % of control (2×)"},
      {"measurement": "T/C", "setting": "T/C endpoint: median survival time, dose: 7.5 mg/kg/injection, schedule: Q01DX005 (ip), vehicle: saline + alcohol, evaluated on day 35", "value": "207 % of control"},
      {"measurement": "T/C", "setting": "T/C endpoint: median survival time, dose: 7.5 mg/kg/injection, schedule: Q01DX005 (ip), vehicle: saline + alcohol, evaluated on day 60", "value": "204 and 226 % of control"},
      {"measurement": "T/C", "setting": "T/C endpoint: median survival time, dose: 7.5 mg/kg/injection, schedule: Q01DX009 (ip), vehicle: saline + alcohol, evaluated on day 30", "value": "250, 268, 275, 370, 375 % of control"},
      {"measurement": "T/C", "setting": "T/C endpoint: median survival time, dose: 7.5 mg/kg/injection, schedule: Q01DX009 (ip), vehicle: saline + alcohol, evaluated on day 35", "value": "262 % of control"},
      {"measurement": "T/C", "setting": "T/C endpoint: median survival time, dose: 7.5 mg/kg/injection, schedule: Q01DX009 (ip), vehicle: saline + alcohol, evaluated on day 60", "value": "292 and 361 % of control"},
      {"measurement": "T/C", "setting": "T/C endpoint: median survival time, dose: 10.0 mg/kg/injection, schedule: Q01DX001 (ip), vehicle: saline", "value": "142 % of control"},
      {"measurement": "T/C", "setting": "T/C endpoint: median survival time, dose: 10.0 mg/kg/injection, schedule: Q01DX005 (ip), vehicle: saline + alcohol", "value": "178, 197, 215, 228, 250, 255, 283, 287, 312, 322, 333 (2×), 337, 340, 352, 357, 361 (2×), 370 % of control (3×)"},
      {"measurement": "T/C", "setting": "T/C endpoint: median survival time, dose: 10.0 mg/kg/injection, schedule: Q01DX009 (ip), vehicle: saline + alcohol", "value": "87, 171, 190, 235, 237, 238, 247, 322, 333, 340, 348, 357, 361 (2×), 361 [5 of 6 alive], 370 (5×), 375 % of control"},
      {"measurement": "T/C", "setting": "T/C endpoint: median survival time, dose: 15.0 mg/kg/injection, schedule: Q01DX005 (ip), vehicle: saline + alcohol, evaluated on day 30", "value": "121, 151, 225, 312, 322, 333 (2×), 337, 340, 348, 352, 357, 361 (3×), 365, 370 (7×), 375 % of control (3×)"}
    ]}
  ]
}
